According to PMC7526444:
No constants are given. Whether binding was seen depends on the method and setting. In cells and extracts the contact can be indirect. Some binding calls cover weakened binding; strength is not graded here.

Chains of the proteins cited; added tags and fusions are not shown.
UniProt Q8N6T7: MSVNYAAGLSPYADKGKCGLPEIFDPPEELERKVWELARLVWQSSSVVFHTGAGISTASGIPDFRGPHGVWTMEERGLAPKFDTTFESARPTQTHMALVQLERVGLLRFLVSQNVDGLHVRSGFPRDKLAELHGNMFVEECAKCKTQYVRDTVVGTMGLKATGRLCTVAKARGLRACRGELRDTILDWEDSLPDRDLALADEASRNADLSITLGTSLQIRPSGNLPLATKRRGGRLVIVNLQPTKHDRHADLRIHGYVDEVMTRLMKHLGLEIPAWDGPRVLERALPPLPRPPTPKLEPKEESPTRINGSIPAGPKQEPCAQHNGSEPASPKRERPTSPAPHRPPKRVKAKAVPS

Molecular target: T1, estrogen-related receptor γ (ERRγ) (UniProt P62508)
T1 sequence: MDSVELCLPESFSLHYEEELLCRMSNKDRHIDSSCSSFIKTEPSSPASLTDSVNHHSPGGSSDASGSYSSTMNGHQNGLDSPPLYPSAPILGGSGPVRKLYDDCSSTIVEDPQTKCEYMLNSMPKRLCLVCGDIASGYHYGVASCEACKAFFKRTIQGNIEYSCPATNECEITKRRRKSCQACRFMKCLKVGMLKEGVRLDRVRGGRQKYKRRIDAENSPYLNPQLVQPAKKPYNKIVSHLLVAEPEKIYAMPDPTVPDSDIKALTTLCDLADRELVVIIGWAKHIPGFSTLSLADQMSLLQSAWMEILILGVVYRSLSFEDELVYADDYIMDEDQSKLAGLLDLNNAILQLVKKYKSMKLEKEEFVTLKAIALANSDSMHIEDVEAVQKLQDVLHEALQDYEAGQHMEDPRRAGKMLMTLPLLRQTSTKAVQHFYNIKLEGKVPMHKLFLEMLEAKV
Experiment: co-IP; HEK293T cells transfected with Sirt6 or mSirt6 together with p300 and ERRγ; lysates immunoprecipitated and blotted

Sirt6 (from UniProt Q8N6T7 1-355) (enzyme)
binding: binds
